In patent US11592453B2, “Personalized metabolomic profiling of specialized pro-resolving mediators” (THE BRIGHAM AND WOMEN'S HOSPITAL, INC., priority 2016, dated 2023):
Some compounds share one wording; it may come from a single statement.

What was measured:
[1] = Murine peritonitis and hemorrhagic exudates, LM profiling; type: in vivo; conditions: mice, zymosan plus thrombin i.p., 4 hours
[2] = test system: prostaglandin, thromboxane and SPM production in human whole blood; experiment: LM metabololipidomics of human whole blood during coagulation in the presence of indomethacin; type: cell-based; conditions: mean of six donors; for LM concentration Avg, Indomethacin t = 0 h: 0 h after coagulation in the presence of indomethacin; for LM concentration Avg, Indomethacin t = 0.25 h: 0.25 h after coagulation in the presence of indomethacin; for LM concentration Avg, Indomethacin t = 0.5 h: 0.5 h after coagulation in the presence of indomethacin; for LM concentration Avg, Indomethacin t = 1 h: 1 h after coagulation in the presence of indomethacin; for LM concentration Avg, Indomethacin t = 3 h: 3 h after coagulation in the presence of indomethacin; for LM concentration Avg, Indomethacin t = 6 h: 6 h after coagulation in the presence of indomethacin; for LM concentration Avg, Indomethacin t = 24 h: 24 h after coagulation in the presence of indomethacin
Description: FIG. 8 illustrates SPM formation in human blood clots being regulated by lipoxygenase activity. (A and B) Freshly drawn human peripheral blood (4 ml) was placed in silicone-coated tubes at 37° C. for 24 hours and coagulation was stopped by snap-freezing before LC-MS/MS analysis was performed. Concentrations of total SPMs, prostaglandins, and thromboxanes after 24 hours of coagulation (Coag.) in the presence or absence of (A) 100 μM indomethacin (Indo.) (n=six individual donors), (B) 500 nM celecoxib (CLX) or 20 μM BAI (n=three individual donors). Data are means±SEM; *P<0.05 for +BAI vs. Coag; ****P<0.0001 for +Indo vs. Coag. using ratio t-test.
Human whole blood was transferred in 4-ml aliquots to negatively charged, silicone-coated 10-ml tubes (BD) without anticoagulant. For experiments with heparin, the heparinized blood was placed in 15-ml polypropylene tubes before incubation at 37° C. For LM profiling at designated times, all samples were immediately subjected to a workup procedure by which whole blood was snap-frozen in a dry ice/isopropanol bath and were returned to room temperature (×3 cycles) before undergoing centrifugation at 100,000 g at 4° C. Supernatants (and clots for select experiments; see FIG. 6) were collected and were subjected to LC-MS/MS LM metabololipidomics.
To obtain a complete blood profile of eicosanoids and SPMs each sample was subjected to a procedure involving snap-freezing of whole blood that was then thawed to room temperature three times and centrifuged at 100,000 g at 4 °C for 30 min before undergoing solid-phase extraction (SPE). Internal standards including d8-5-HETE, d5-RvD2, d5-LXA4, d4-LTB4, and d4-PGE2 (500 pg each; Cayman Chemical) were added together with four volumes of methanol to facilitate protein precipitation. […] Before elution, LM bound to the SPE matrix were neutralized with ddH2O. Methyl formate fractions from the SPE were brought to dryness under a gentle stream of nitrogen and resuspended in 1:1 methanol:water before injection into a liquid chromatography-tandem mass spectrometry system consisting of a QTrap 5500 (AB Sciex) equipped with a Shimadzu LC-20AD HPLC (Tokyo, Japan). A Poroshell 120 EC-18 column (100 mm×4.6 mm×2.7 μm; Agilent Technologies) was kept in a column oven maintained at 50° C., and lipid mediators (LMs) were eluted in a gradient of methanol/water/acetic acid from 55:45:0.01 (v/v/v) to 100:0:0.01 at a flow rate of 0.5 ml/min. To monitor and quantify the amounts of lipid mediators of interest, multiple reaction monitoring (MRM) was used with MS/MS matching signature ion fragments for each molecule (at least six diagnostic ions; ˜0.1 pg limits of detection as described previously (15)]. PCA was performed as described previously (15) with SIMCA software, version 13.0.3. Calibration curves were obtained daily from authentic (nonsynthetic) standards and matrix suppression for each targeted LM in snap-frozen blood, and supernatants determined and used for recovery and quantitation.

Structure (SMILES) | abundance in hemorrhagic exudates compared to sham saline alone [1] | LM concentration Avg, Indomethacin t = 0 h [2] | LM concentration Avg, Indomethacin t = 0.25 h [2] | LM concentration Avg, Indomethacin t = 0.5 h [2] | LM concentration Avg, Indomethacin t = 1 h [2] | LM concentration Avg, Indomethacin t = 3 h [2] | LM concentration Avg, Indomethacin t = 6 h [2] | LM concentration Avg, Indomethacin t = 24 h [2]
CCCCC[C@H](O)[C@H](O)/C=C/C=C/C=C\C=C\[C@@H](O)CCCC(=O)O [LXB4, lipoxin B4: (5S, 14R, 15S-trihydroxy-eicosa-6E, 8Z, 10E, 12E-tetraenoic acid)] | statistically significantly increased in abundance | 0.5 pg/mL | 1.0 pg/mL | 0.4 pg/mL | 0.6 pg/mL | 0.7 pg/mL | 0.8 pg/mL | 2.0 pg/mL
CC/C=C\C/C=C\C[C@H](O)\C=C/C=C/C=C/[C@H](O)C/C=C\CCC(=O)O [Maresin 1, maresin 1 (7R, 14S-dihydroxy-docosa-4Z, 8E, 10E, 12Z, 16Z, 19Z-hexaenoic acid)] | statistically significantly increased in abundance | 1.0 pg/mL | 1.9 pg/mL | 0.4 pg/mL | 0.6 pg/mL | 1.4 pg/mL | 1.8 pg/mL | 4.8 pg/mL
CC/C=C\C[C@H](O)/C=C/C=C\C=C\C=C\[C@@H](O)[C@@H](O)C/C=C\CCC(=O)O [RvD1, Resolvin D1 (7S, 8R, 17S-trihydroxy-docosa-4Z, 9E, 11E, 13Z, 15E, 19Z-hexaenoic acid)] | statistically significantly increased in abundance | — ((—) denotes concentrations <0.1 pg/ml) | 0.4 pg/mL | 0.5 pg/mL | 0.6 pg/mL | 1.8 pg/mL | 5.6 pg/mL | 34.2 pg/mL
CC/C=C\C[C@H](O)/C=C/C=C\C/C=C\C=C\[C@@H](O)C/C=C\CCC(=O)O [RvD5, Resolvin D5 (7S, 17S-dihydroxy-docosa-4Z, 8E, 10Z, 13Z, 15E, 19Z-hexaenoic acid)] | statistically significantly increased in abundance | 1.2 pg/mL | 1.6 pg/mL | 2.1 pg/mL | 2.6 pg/mL | 7.0 pg/mL | 10.1 pg/mL | 14.7 pg/mL
CC[C@@H](O)/C=C/C=C\C[C@@H](O)/C=C/C=C/C=C\[C@@H](O)CCCC(=O)O [RvE1, Resolvin E1 (5S, 12R, 18R-trihydroxy-eicosa-6Z, 8E, 10E, 14Z, 16E-pentaenoic acid)] | statistically significantly increased in abundance | — ((—) denotes concentrations <0.1 pg/ml) | — ((—) denotes concentrations <0.1 pg/ml) | — ((—) denotes concentrations <0.1 pg/ml) | — ((—) denotes concentrations <0.1 pg/ml) | 0.3 pg/mL | 0.8 pg/mL | 4.5 pg/mL
CC[C@@H](O)[C@H](O)/C=C/C=C/C=C\C/C=C\C/C=C\CCCC(=O)O [RvE3, Resolvin E3 (17R,18R-dihydroxy-eicosa-5Z, 8Z, 11Z, 13E, 15E-pentaenoic acid)] |  | — ((—) denotes concentrations <0.1 pg/ml) | — ((—) denotes concentrations <0.1 pg/ml) | — ((—) denotes concentrations <0.1 pg/ml) | — ((—) denotes concentrations <0.1 pg/ml) | — ((—) denotes concentrations <0.1 pg/ml) | — ((—) denotes concentrations <0.1 pg/ml) | — ((—) denotes concentrations <0.1 pg/ml)
CCCCC[C@H](O)/C=C/[C@H]1OC(O)C[C@H](O)[C@@H]1C/C=C\CCCC(=O)O (stereo partly drawn) [TXB2, 9α, 11, 15S-trihydroxy-thromba-5Z, 13E-dien-1-oic acid] |  | 1.4 pg/mL | 0.5 pg/mL | 1.0 pg/mL | 2.9 pg/mL | 4.3 pg/mL | 2.6 pg/mL | 5.1 pg/mL
